We go through eight substances from patent US5478808A (Takeda Chemical Industries, Ltd., priority 1992, dated 1995).

This data set can be described thus: general procedure: solution-phase peptide synthesis; HONB/DCC; HOBT/WSC; HONB/DIC.

For “(2R,6R)-2-Fmoc-amino-6,7-bis(PamO)-4-THT-Glu-Gly-D-Glu-OH”, the step yield (late stage modification step) worked out at 98%. Under “lipidation step”, “(2R,6R)-2-hexanoylamino-6-hexanoyloxy-7-PamO-4-THT-Gly-Gly-Gly-Glu (O^t Bu)-O^t Bu” registered a step yield of 88%.

“(2R,6R)-2-hexanoylamino-6-hexanoyloxy-7-PamO-4-THT-Gly-Gly-Gly-Glu-OH” gave a step yield (late stage modification step) of 95%. In turn, “(2R,6S)-2-Fmoc-amino-6,7-bis(PamO)-4-THT-Gly-Gly-Gly-Glu-(O^t Bu)-Thr(^t Bu)-Thr(^t Bu)-O^t Bu” yielded a step yield (lipidation step) of 97%. In turn, “(2R,6S)-2-amino-6,7-bis (PamO)-4-THT-Gly-Gly-Gly-Glu(O^t Bu)-Thr(^t Bu)-Thr(^t Bu)-O^t Bu” had a step yield (late stage modification step) of 90%.

The substance “H-Gly-Gly-Gly-Glu(O^t Bu)-Thr(^t Bu)-Thr(^t Bu)-O^t Bu” displayed a step yield (late stage modification step) of 98%. Substance “Z-Gly-Gly-Gly-Glu(O^t Bu)-Thr(^t Bu)-O^t Bu” yielded a step yield (coupling step) of 85%. Still for that read-out and setting: then “Z-Gly-Gly-Gly-Glu(O^t Bu)-Thr(^t Bu)-Thr(^t Bu)-O^Bu”, with 75.4%.
